No constants are given. Whether binding was seen depends on the method and setting. For some of these results: A result given as binding can be weak or reduced; the word gives no strength. For some of these results: Where a sequence is shown, tags or fusion partners need not be part of it.
B1: AurA-GFP (enzyme, UniProt Q27393 1-421)
chain: MSHPSDHVLRPKENAPHRMPEKSAAVLNMQKNLLLGKKPNSENMAPDSKPLPGSSGALIRSAATTVRPATKPGLGGSNSIASSEGNNFQKPMVPSVKKTTSEFAAPAPVAPIKKPESLSKQKPTAASSESSKELGAASSSAEKEKTKTETQPQKPKKTWELNNFDIGRLLGRGKFGNVYLAREKESQFVVALKVLFKRQIGESNVEHQVRREIEIQSHLRHPHILRLYAYFHDDVRIYLILEYAPQGTLFNALQAQPMKRFDERQSATYIQALCSALLYLHERDIIHRDIKPENLLLGHKGVLKIADFGWSVHEPNSMRMTLCGTVDYLPPEMVQGKPHTKNVDLWSLGVLCFELLVGHAPFYSKNYDETYKKILKVDYKLPEHISKAASHLISKLLVLNPQHRLPLDQVMVHPWILAHTQ

The chains behind the UniProt entries cited, without tags or fusion partners. Where a name states a change or a piece, a line headed by the entry shows the natural chain unless it says otherwise.
UniProt Q9VV79: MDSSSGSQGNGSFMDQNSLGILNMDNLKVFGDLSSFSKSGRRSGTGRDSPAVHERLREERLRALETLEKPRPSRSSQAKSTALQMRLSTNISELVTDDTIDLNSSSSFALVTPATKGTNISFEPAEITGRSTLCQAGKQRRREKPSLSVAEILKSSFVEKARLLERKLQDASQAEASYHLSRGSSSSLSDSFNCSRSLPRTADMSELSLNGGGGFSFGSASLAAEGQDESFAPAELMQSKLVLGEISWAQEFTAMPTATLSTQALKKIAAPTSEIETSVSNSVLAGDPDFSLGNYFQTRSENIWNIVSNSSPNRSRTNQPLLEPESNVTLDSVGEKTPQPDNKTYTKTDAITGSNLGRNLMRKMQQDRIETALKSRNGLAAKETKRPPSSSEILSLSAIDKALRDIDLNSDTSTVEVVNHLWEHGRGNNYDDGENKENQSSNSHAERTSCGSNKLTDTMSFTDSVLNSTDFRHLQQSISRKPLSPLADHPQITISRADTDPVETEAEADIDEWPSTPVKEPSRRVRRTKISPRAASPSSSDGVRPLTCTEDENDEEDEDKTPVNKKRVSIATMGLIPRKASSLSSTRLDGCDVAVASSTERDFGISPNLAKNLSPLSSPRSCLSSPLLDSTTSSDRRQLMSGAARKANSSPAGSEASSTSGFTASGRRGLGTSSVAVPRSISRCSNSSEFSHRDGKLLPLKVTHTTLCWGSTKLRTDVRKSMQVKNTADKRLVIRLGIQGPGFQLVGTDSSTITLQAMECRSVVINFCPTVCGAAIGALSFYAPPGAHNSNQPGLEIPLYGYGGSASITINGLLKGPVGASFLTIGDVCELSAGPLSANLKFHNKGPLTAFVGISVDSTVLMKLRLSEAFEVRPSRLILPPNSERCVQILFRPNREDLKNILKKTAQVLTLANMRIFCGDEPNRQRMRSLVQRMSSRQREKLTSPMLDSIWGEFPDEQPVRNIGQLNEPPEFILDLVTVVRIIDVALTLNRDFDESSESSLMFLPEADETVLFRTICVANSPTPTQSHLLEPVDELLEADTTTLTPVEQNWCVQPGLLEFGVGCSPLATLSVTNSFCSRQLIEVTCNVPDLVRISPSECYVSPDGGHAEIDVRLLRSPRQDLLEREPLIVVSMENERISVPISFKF

What was measured:
[1] = molecular target: WT Spd-2-ALFA (Drosophila melanogaster) (UniProt Q9VV79); test: recruitment to nanobody-coated beads injected into living embryos (fluorescence microscopy); streptavidin magnetic beads coupled to biotinylated anti-ALFA-tag nanobody, injected with mRNA encoding ALFA-tagged WT or mutant Spd-2 (bait) into Drosophila embryos expressing Polo-GFP and RFP-Cnn or AurA-GFP and mCherry-TACC; signal on the beads imaged by spinning disk confocal microscopy
[2] = molecular target: Spd-2-GFP (Drosophila melanogaster) (UniProt Q9VV79); test: recruitment to nanobody-coated beads injected into living embryos (fluorescence microscopy); streptavidin magnetic beads coupled to biotinylated anti-GFP nanobody, injected with mRNA encoding GFP or a GFP fusion (bait) into Drosophila embryos expressing RFP-Cnn or mCherry-TACC; red signal on the beads imaged by spinning disk confocal microscopy
[3] = molecular target: Spd-2∆ABD1-ALFA (Drosophila melanogaster); test: recruitment to nanobody-coated beads injected into living embryos (fluorescence microscopy); streptavidin magnetic beads coupled to biotinylated anti-ALFA-tag nanobody, injected with mRNA encoding ALFA-tagged WT or mutant Spd-2 (bait) into Drosophila embryos expressing Polo-GFP and RFP-Cnn or AurA-GFP and mCherry-TACC; signal on the beads imaged by spinning disk confocal microscopy
[4] = molecular target: Spd-2∆Polo-∆ABD1 (Drosophila melanogaster); test: as above
[5] = molecular target: Spd-2∆ABD2-ALFA (Drosophila melanogaster); test: as above
[6] = molecular target: Spd-2∆Polo-ALFA (Drosophila melanogaster); test: as above

Molecule | binding [1] | binding [2] | binding [3] | binding [4] | binding [5] | binding [6]
mCherry-TACC (from UniProt Q9VN51) | binds | binds | – | – | – | –
B1 | binds | – | binds weakly | binds weakly | no binding | binds
